These are yes or no findings as the source states them, for the method shown. Some results given as binding are weak or reduced against the parent protein; the word gives no strength.

Protein sequences, listed by entry. Tags and fused reporters are not part of them. Lines headed by an entry give the natural chain unless they say otherwise; changes in a name come on top. Residues count along the entry.
UniProt Q07011, residues 24-186: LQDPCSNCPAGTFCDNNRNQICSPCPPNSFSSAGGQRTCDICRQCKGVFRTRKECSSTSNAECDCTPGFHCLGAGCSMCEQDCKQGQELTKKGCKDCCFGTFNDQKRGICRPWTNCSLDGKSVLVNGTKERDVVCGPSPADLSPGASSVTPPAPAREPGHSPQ
UniProt P41273, residues 71-254: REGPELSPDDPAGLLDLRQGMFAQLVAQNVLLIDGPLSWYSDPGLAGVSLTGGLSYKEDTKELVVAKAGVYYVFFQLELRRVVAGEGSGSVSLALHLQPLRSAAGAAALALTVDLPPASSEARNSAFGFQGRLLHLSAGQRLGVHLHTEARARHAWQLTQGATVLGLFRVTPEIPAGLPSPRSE

This experiment addresses human 4-1BB His protein (Sinobiological, Beijing #10041-H08H) (human) (UniProt Q07011). Briefly: blocking ELISA: 4-1BB-his coated, internal control 4-1BBL titrated, then 4-1BBL-Fc, detected with anti-human IgG-HRP; x axis printed 0 to 5 with ng/ml (apparently log10). In general terms: In an ELISA, binding on a coated surface is turned into a signal by an enzyme label.

As for “internal control 4-1BBL (from UniProt P41273 71-254) (ligand)”, the binding result is reported as “binds”.

(Values after patent publication US20210363266A1.)
